No constants are given. Whether binding was seen depends on the method and setting. In cells and extracts the contact can be indirect. Some entries that bind do so weakly or less than the wild type. Sequences can lack the tags named with a protein.

Protein sequences, listed by entry. Tags and fused reporters are not part of them.
UniProt Q9UKB1: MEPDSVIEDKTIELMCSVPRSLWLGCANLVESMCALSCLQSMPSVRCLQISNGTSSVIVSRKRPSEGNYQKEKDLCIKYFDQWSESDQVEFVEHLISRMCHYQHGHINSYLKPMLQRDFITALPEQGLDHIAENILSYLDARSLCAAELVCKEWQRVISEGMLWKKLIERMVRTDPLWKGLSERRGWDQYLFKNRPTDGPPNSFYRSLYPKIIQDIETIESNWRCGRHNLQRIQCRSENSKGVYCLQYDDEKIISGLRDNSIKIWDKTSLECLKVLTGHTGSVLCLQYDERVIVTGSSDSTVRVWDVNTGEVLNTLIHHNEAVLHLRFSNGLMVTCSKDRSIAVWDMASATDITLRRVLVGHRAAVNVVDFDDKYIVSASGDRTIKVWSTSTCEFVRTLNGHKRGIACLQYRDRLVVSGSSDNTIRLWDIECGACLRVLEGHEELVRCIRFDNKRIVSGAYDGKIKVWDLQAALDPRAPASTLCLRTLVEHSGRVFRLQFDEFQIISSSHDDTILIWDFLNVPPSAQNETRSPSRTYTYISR

Assay [1] concerns the target T1, Hypermethylated in cancer 1 (HIC1), HA-tagged (UniProt Q14526).
T1 sequence: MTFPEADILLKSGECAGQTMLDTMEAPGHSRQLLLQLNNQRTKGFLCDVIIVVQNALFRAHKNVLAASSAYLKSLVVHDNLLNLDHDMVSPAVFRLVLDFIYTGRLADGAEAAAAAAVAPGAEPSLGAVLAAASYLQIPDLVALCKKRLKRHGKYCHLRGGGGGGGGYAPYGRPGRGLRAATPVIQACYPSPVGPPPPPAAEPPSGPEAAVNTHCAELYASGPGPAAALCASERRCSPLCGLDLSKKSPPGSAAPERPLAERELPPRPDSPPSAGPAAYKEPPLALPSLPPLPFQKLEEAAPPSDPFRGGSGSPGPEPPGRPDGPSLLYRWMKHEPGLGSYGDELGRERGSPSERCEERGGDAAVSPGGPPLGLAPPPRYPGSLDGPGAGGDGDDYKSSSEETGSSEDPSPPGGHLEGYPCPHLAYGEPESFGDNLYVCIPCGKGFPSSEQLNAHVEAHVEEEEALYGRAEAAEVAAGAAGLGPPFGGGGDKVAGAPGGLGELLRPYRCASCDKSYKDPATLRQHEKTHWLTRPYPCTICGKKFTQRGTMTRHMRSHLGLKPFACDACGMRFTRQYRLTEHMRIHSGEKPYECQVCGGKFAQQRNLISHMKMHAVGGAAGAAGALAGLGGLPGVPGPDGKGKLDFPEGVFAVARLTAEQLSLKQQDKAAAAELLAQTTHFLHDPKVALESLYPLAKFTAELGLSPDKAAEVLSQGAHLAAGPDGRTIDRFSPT
Kind of assay: co-IP; HEK-293T cells transfected with FLAG-tagged FBXW11 or HA-tagged HIC1, or both, for 48 h; lysates incubated with antibodies against FLAG tag or HA tag at 4 °C for 3 h; immunoprecipitates analysed by western blotting. (A western blot detects proteins with antibodies after separation by electrophoresis.)

Assay [2] has as its target F-box and WD repeat domain containing 11 (FBXW11), FLAG-tagged (UniProt Q9UKB1). The description is as above.

As for “F-box and WD repeat domain containing 11 (FBXW11), FLAG-tagged (from UniProt Q9UKB1 1-542)”, the binding entry in assay [1] is “binds”.

B1: Hypermethylated in cancer 1 (HIC1), HA-tagged (protein, UniProt Q14526 1-733)
chain: MTFPEADILLKSGECAGQTMLDTMEAPGHSRQLLLQLNNQRTKGFLCDVIIVVQNALFRAHKNVLAASSAYLKSLVVHDNLLNLDHDMVSPAVFRLVLDFIYTGRLADGAEAAAAAAVAPGAEPSLGAVLAAASYLQIPDLVALCKKRLKRHGKYCHLRGGGGGGGGYAPYGRPGRGLRAATPVIQACYPSPVGPPPPPAAEPPSGPEAAVNTHCAELYASGPGPAAALCASERRCSPLCGLDLSKKSPPGSAAPERPLAERELPPRPDSPPSAGPAAYKEPPLALPSLPPLPFQKLEEAAPPSDPFRGGSGSPGPEPPGRPDGPSLLYRWMKHEPGLGSYGDELGRERGSPSERCEERGGDAAVSPGGPPLGLAPPPRYPGSLDGPGAGGDGDDYKSSSEETGSSEDPSPPGGHLEGYPCPHLAYGEPESFGDNLYVCIPCGKGFPSSEQLNAHVEAHVEEEEALYGRAEAAEVAAGAAGLGPPFGGGGDKVAGAPGGLGELLRPYRCASCDKSYKDPATLRQHEKTHWLTRPYPCTICGKKFTQRGTMTRHMRSHLGLKPFACDACGMRFTRQYRLTEHMRIHSGEKPYECQVCGGKFAQQRNLISHMKMHAVGGAAGAAGALAGLGGLPGVPGPDGKGKLDFPEGVFAVARLTAEQLSLKQQDKAAAAELLAQTTHFLHDPKVALESLYPLAKFTAELGLSPDKAAEVLSQGAHLAAGPDGRTIDRFSPT
In the case of B1, the binding result in assay [2] is on record as “binds”.

(Values after paper PMC8511012.)
